# Results: the supplement of paper PMC5393889
# The other results are listed elsewhere or left out.
# System: Caenorhabditis elegans N2
# Test: aldicarb interaction hit call (worm growth perturbed in combination with 10 uM aldicarb in both replicates, no effect as single agent) (binary (1 = interacts)); higher = interacts with aldicarb (growth perturbed)
# Conditions: first compound 1.5 µM; aldicarb concentration 10 µM; 6 days; 20 °C
row,SMILES,aldicarb interaction hit call
1,COc1ccccc1C(=O)Nc1ccc(F)cc1F [wact-592] + CNC(=O)O/N=C/C(C)(C)SC [aldicarb],inactive: 0
2,C#CCNS(=O)(=O)c1cccc(C(=O)Nc2ccc3ccccc3n2)c1 + CNC(=O)O/N=C/C(C)(C)SC [aldicarb],inactive: 0
3,CCC(NCc1c[nH]nc1-c1ccc(C)c(C)c1)c1ccc(F)cc1 (stereo not drawn) [wact-297] + CNC(=O)O/N=C/C(C)(C)SC [aldicarb],inactive: 0
4,O=C(Nc1ccc(NC(=S)NC(=O)c2ccccc2Cl)cc1)c1cccc(Cl)c1 [wact-459] + CNC(=O)O/N=C/C(C)(C)SC [aldicarb],inactive: 0
5,CC(NC(=O)c1nc(-c2cccs2)no1)c1ccccc1 (stereo not drawn) [wact-615] + CNC(=O)O/N=C/C(C)(C)SC [aldicarb],inactive: 0
6,CNCCCOc1ccc(-c2ccccc2)cc1.Cl [wact-94] + CNC(=O)O/N=C/C(C)(C)SC [aldicarb],inactive: 0
7,Cc1ccc(C2(c3noc(CN4CCC(c5ccncc5)CC4)n3)CCCC2)cc1 [wact-334] + CNC(=O)O/N=C/C(C)(C)SC [aldicarb],inactive: 0
8,COc1ccc(NC(=O)c2ccccc2C)cc1 [wact-69] + CNC(=O)O/N=C/C(C)(C)SC [aldicarb],inactive: 0
9,COc1ccc(/C=C/c2ccccn2)cc1 [wact-622] + CNC(=O)O/N=C/C(C)(C)SC [aldicarb],inactive: 0
10,COc1ccccc1C(=O)NCCC1=CCCCC1 [wact-496] + CNC(=O)O/N=C/C(C)(C)SC [aldicarb],inactive: 0
11,Clc1ccc(-c2nc(-c3ccccn3)no2)cc1 [wact-58] + CNC(=O)O/N=C/C(C)(C)SC [aldicarb],inactive: 0
12,FC(F)(F)c1ccc(-c2noc(CN3CCN(Cc4cccnc4)CC3)n2)cc1 [wact-246] + CNC(=O)O/N=C/C(C)(C)SC [aldicarb],inactive: 0
13,Cc1oc(-c2ccc(F)cc2)nc1CN(C)C(C)c1cccs1 (stereo not drawn) [wact-293] + CNC(=O)O/N=C/C(C)(C)SC [aldicarb],inactive: 0
14,COC(=O)c1ccc(CSc2ccc(C)cc2)cc1 [wact-514] + CNC(=O)O/N=C/C(C)(C)SC [aldicarb],active: 1
15,O=C(Nc1ccc2ccccc2n1)c1ccccc1 + CNC(=O)O/N=C/C(C)(C)SC [aldicarb],inactive: 0
16,COc1ccc(/C=C/c2nc3ccccc3o2)cc1 [wact-382] + CNC(=O)O/N=C/C(C)(C)SC [aldicarb],inactive: 0
17,O=C(c1ccc(Cl)c(Cl)c1)N1CCN(c2ccc([N+](=O)[O-])cc2C(F)(F)F)CC1 [wact-501] + CNC(=O)O/N=C/C(C)(C)SC [aldicarb],inactive: 0
18,CC(C)(C)c1ccc(-c2nc(-c3ccncc3)no2)cc1 [wact-8] + CNC(=O)O/N=C/C(C)(C)SC [aldicarb],inactive: 0
19,O=C(NCCC1=CCCCC1)c1ccc(OC2CCN(Cc3ccccn3)CC2)cc1 [wact-234] + CNC(=O)O/N=C/C(C)(C)SC [aldicarb],inactive: 0

# 2 records picked at random from those above:
row,SMILES,aldicarb interaction hit call
10,COc1ccccc1C(=O)NCCC1=CCCCC1 [wact-496] + CNC(=O)O/N=C/C(C)(C)SC [aldicarb],inactive: 0
15,O=C(Nc1ccc2ccccc2n1)c1ccccc1 + CNC(=O)O/N=C/C(C)(C)SC [aldicarb],inactive: 0

# (continued)

row,SMILES,aldicarb interaction hit call
1,O=C(NCc1ccc(Cl)cc1)C(Cl)(Cl)Cl [wact-485] + CNC(=O)O/N=C/C(C)(C)SC [aldicarb],inactive: 0
2,O=C(Cc1cccc(F)c1)Nc1ccc(Cl)cc1 [wact-141] + CNC(=O)O/N=C/C(C)(C)SC [aldicarb],inactive: 0
3,CCCCSc1ccc(NCCC(=O)c2ccco2)cc1 [wact-512] + CNC(=O)O/N=C/C(C)(C)SC [aldicarb],inactive: 0
4,Cc1cccc(-c2ccc(NC(=O)C3CCN(CC4CCOC4)CC3)cc2)c1 (stereo not drawn) [wact-240] + CNC(=O)O/N=C/C(C)(C)SC [aldicarb],inactive: 0
5,CC(=O)N1CCN(c2cc(N3CCc4ccccc4C3)c(F)cc2[N+](=O)[O-])CC1 [wact-122] + CNC(=O)O/N=C/C(C)(C)SC [aldicarb],inactive: 0
6,O=C(/C=C/c1ccccc1)c1ccc2c(c1)OCCO2 [wact-413] + CNC(=O)O/N=C/C(C)(C)SC [aldicarb],inactive: 0
7,COc1cc(NC(=O)c2cc3ccccc3o2)ccc1NC(=O)c1ccccc1Cl [wact-86] + CNC(=O)O/N=C/C(C)(C)SC [aldicarb],active: 1
8,CCc1ccc(OCCNC(=O)c2ccccc2I)cc1 [wact-12] + CNC(=O)O/N=C/C(C)(C)SC [aldicarb],inactive: 0
9,CC(C)(C)C(=O)N1CCN(c2ccc([N+](=O)[O-])cc2F)CC1 [wact-91] + CNC(=O)O/N=C/C(C)(C)SC [aldicarb],inactive: 0
10,CC(Oc1ccc(Br)cc1)C(=O)O/N=C(\N)c1ccccn1 (stereo not drawn) [wact-541] + CNC(=O)O/N=C/C(C)(C)SC [aldicarb],inactive: 0
11,CCOc1ccc(C(=O)/C=C/c2ccccc2F)cc1 [wact-17] + CNC(=O)O/N=C/C(C)(C)SC [aldicarb],inactive: 0
12,N/C(=N\OC(=O)c1ccco1)c1ccccc1 [wact-404] + CNC(=O)O/N=C/C(C)(C)SC [aldicarb],inactive: 0
13,Cc1cc(-c2nc3ccccc3o2)ccc1N [wact-571] + CNC(=O)O/N=C/C(C)(C)SC [aldicarb],inactive: 0
14,CC1(C)Cc2c(cnn2-c2cccc(F)c2)C(NCc2c[nH]nc2-c2ccccc2)C1 (stereo not drawn) [wact-309] + CNC(=O)O/N=C/C(C)(C)SC [aldicarb],inactive: 0
15,Cc1cccc(-c2ccc(NC(=O)C3CCN(Cc4c(C)nn(C(C)C)c4C)CC3)cc2)c1 [wact-265] + CNC(=O)O/N=C/C(C)(C)SC [aldicarb],inactive: 0
16,CNC(=O)COc1ccc2cc(Br)ccc2c1 [wact-628] + CNC(=O)O/N=C/C(C)(C)SC [aldicarb],inactive: 0
17,Clc1ccc(OCc2nc(-c3cccnc3)no2)cc1 [wact-54] + CNC(=O)O/N=C/C(C)(C)SC [aldicarb],inactive: 0
18,O=C(c1ccc(Cl)c(Cl)c1)N1CCN(c2ccc([N+](=O)[O-])cc2F)CC1 [wact-221] + CNC(=O)O/N=C/C(C)(C)SC [aldicarb],inactive: 0
19,Fc1ccc(CN2CCCN(Cc3nc(-c4ccc(C(F)(F)F)cc4)no3)CC2)cc1 [wact-313] + CNC(=O)O/N=C/C(C)(C)SC [aldicarb],inactive: 0
